In article PMC7819943, “Rice protein-binding microarrays: a tool to detect cis-acting elements near promoter regions in rice”:
The other results are listed elsewhere or left out.

The sequences below were run against T1, OsSMF1 (Oryza sativa, UniProt Q6ZLB0 1-436) (assay: protein-binding microarray (RPBM); PBS, 2% BSA, 51.3 ng/ul salmon testes DNA, 50 uM zinc acetate, 200 nM TF, 25 C, 1 h; high values mean tight binding). Settings: protein: recombinant; tags: N-terminal polyhistidine and DsRed monomer fusion (pET32a); chain copies: 2; label: CyDye5-dUTP incorporated in the synthesized complementary strand; 3' TTTTT single-stranded linker to array surface; dsDNA, one strand shown.
T1 sequence: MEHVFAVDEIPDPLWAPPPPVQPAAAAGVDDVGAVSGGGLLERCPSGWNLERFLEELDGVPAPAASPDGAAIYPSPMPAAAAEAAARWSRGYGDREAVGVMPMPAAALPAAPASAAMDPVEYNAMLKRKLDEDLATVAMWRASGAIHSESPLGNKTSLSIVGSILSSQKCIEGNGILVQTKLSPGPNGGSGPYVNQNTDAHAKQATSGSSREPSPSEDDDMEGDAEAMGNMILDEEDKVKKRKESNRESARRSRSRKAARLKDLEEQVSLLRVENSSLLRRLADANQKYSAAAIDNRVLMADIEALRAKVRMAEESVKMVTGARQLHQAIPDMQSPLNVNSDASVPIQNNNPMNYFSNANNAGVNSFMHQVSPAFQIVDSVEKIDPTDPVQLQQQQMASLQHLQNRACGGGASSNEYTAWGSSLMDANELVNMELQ
Summary of the method: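 Transcription factors were each fused at the N-terminus to a polyhistidine tag plus DsRed and expressed in E. coli BL21-CodonPlus before Ni–NTA purification. Binding to a double-stranded custom Agilent array was carried out with 200 nM protein at 25 °C for 1 h in PBS, 2% BSA, salmon testes DNA and 50 µM zinc acetate. The binding signal is per-feature fluorescence intensity, in arbitrary units, on an Axon 4000B scanner.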

Sequence	binding signal
GAACAGTGACTCAAATTAAGGATGAGAAATGGGTGGATCACGGAGTCACCTAGTGCAG	29100 fluorescence intensity (a.u.)
GCGGCGGCGGAGCATCGGGCCCCTTCGGCTTCAGATCCGGCGGAGTCACCTAGTGCAG	3420 fluorescence intensity (a.u.)
AATCTTTTGATACTAATTAAGCCGTCATTAGCACATGTGGCGGAGTCACCTAGTGCAG	3240 fluorescence intensity (a.u.)
CTTGTTGGTAACCAAGCATGACAAGACACTGCTTGGCCTCCGGAGTCACCTAGTGCAG	4330 fluorescence intensity (a.u.)
CTGCAATCGCACCATCATCGCTCCTCTGGCCATGATCCGTCGGAGTCACCTAGTGCAG	3140 fluorescence intensity (a.u.)
ATCGATCCCTACCTACGAGGCTTAGGCCCATTAGCCCAAACGGAGTCACCTAGTGCAG	38800 fluorescence intensity (a.u.)
CACTCCCATTCCCATCCTCCACATCCCGCGCCATCGACCTCGGAGTCACCTAGTGCAG	3400 fluorescence intensity (a.u.)
AAGTTGTATGTTATAAACGGTAAAGGAAGACAAGTCATACCGGAGTCACCTAGTGCAG	3270 fluorescence intensity (a.u.)
CCATGGCACCTCCTCCTACGCCAGCACCGCTGCCGTGATGCGGAGTCACCTAGTGCAG	4800 fluorescence intensity (a.u.)
GAATTCAATATGCGGGTTCAGATAGATGAGTGGGCACTTTCGGAGTCACCTAGTGCAG	3330 fluorescence intensity (a.u.)
CTCTCGTCGTCTCGTTCATCCCCGGGCTGGCATCGCAGGACGGAGTCACCTAGTGCAG	3270 fluorescence intensity (a.u.)
CACTACGTGCCATGGATGGATGCTCTACCGGGCGAAGCTACGGAGTCACCTAGTGCAG	25800 fluorescence intensity (a.u.)
TCTCTCTCTCTCTCGCCATCGTCACTGCGGCTGCTGCTGCCGGAGTCACCTAGTGCAG	3810 fluorescence intensity (a.u.)
GATCTGGCAGGTCCTCGTGATCTGCTCCCTCAGCTCGTCCCGGAGTCACCTAGTGCAG	22900 fluorescence intensity (a.u.)
GAGGGAGTCAAAGTGGGTTTACTCCACCTACGAATCCAATCGGAGTCACCTAGTGCAG	4940 fluorescence intensity (a.u.)
GGCCGAAGCAGTGGTTTTCAAGTTGCGCCAACACATCGTCCGGAGTCACCTAGTGCAG	3610 fluorescence intensity (a.u.)
TTGTGTGTTGTAGTGGTGAGTGGTGTTTTGATGGTTTCTGCGGAGTCACCTAGTGCAG	4280 fluorescence intensity (a.u.)
CGGGCCAAAATTATTCAGATCCCACGTGTCAGCTCACGGGCGGAGTCACCTAGTGCAG	10100 fluorescence intensity (a.u.)
CTTGACTAGCTGACTGTTCTTACAAGTGACATCAGTCGAGCGGAGTCACCTAGTGCAG	4110 fluorescence intensity (a.u.)
CTCACATACGCTTGTTAACCCTTTCTTTCACGTGATGACTCGGAGTCACCTAGTGCAG	4410 fluorescence intensity (a.u.)
TAGCTAAACAGATCTAATCCCCTTCTTTCTCCCCAATCCTCGGAGTCACCTAGTGCAG	37500 fluorescence intensity (a.u.)
GCTGTCGATAGGTATCTCGTCTACCACTGAAAGAATAATTCGGAGTCACCTAGTGCAG	4560 fluorescence intensity (a.u.)
TTTCACCAGTGGCGCGACGCGATCCGCGTCAGGCGCATCTCGGAGTCACCTAGTGCAG	3260 fluorescence intensity (a.u.)
AAATAAAATACTGACTGGAATGCCACGCGTATGTCACGTACGGAGTCACCTAGTGCAG	9370 fluorescence intensity (a.u.)
ATTTAAACTACCTTTTCATTGACACATGCACTCTCACCGACGGAGTCACCTAGTGCAG	3580 fluorescence intensity (a.u.)
ATATAATTTGCTTTAAAGTGAATATGTTATCACCGCAGATCGGAGTCACCTAGTGCAG	3490 fluorescence intensity (a.u.)
ACGATTCGCTGCTCGCCGGCCTCCGCCGCGGGCGCCGCGACGGAGTCACCTAGTGCAG	3560 fluorescence intensity (a.u.)

Exported as labelled records: entries from further up.
CTCTCGTCGTCTCGTTCATCCCCGGGCTGGCATCGCAGGACGGAGTCACCTAGTGCAG
  binding signal: 3270 fluorescence intensity (a.u.)
CACTACGTGCCATGGATGGATGCTCTACCGGGCGAAGCTACGGAGTCACCTAGTGCAG
  binding signal: 25800 fluorescence intensity (a.u.)
TCTCTCTCTCTCTCGCCATCGTCACTGCGGCTGCTGCTGCCGGAGTCACCTAGTGCAG
  binding signal: 3810 fluorescence intensity (a.u.)

Later entries:

Sequence	binding signal
CGGCGACGGCCTCCCGCACCTTCGCCTTCCACGCCACCGACGGAGTCACCTAGTGCAG	3900 fluorescence intensity (a.u.)
TCCTTCTCTGACTCTGTCTTGGCCATCCTATTCCTAGCTCCGGAGTCACCTAGTGCAG	29000 fluorescence intensity (a.u.)
AGTTTGTGTTTGTCACGTCGCAGTTTTCGTTAGTGTTTTGCGGAGTCACCTAGTGCAG	3580 fluorescence intensity (a.u.)
ACCTCGCAGTCGCATCGTCATCGCGGGCGGCCGCCTCGGCCGGAGTCACCTAGTGCAG	4760 fluorescence intensity (a.u.)
TCTTCTTCTTCTTCCTTCCAAATTGCAAATCGCAATGCCACGGAGTCACCTAGTGCAG	3160 fluorescence intensity (a.u.)
AAGAAACCCAACTATTAAATCCACAAGTAATCATAGAAAACGGAGTCACCTAGTGCAG	32800 fluorescence intensity (a.u.)
TCGTCTCTCTGTGTATGTTCATGGGTCCCACATAGCAATTCGGAGTCACCTAGTGCAG	3220 fluorescence intensity (a.u.)
AGCGGCGCACATGGGGCGAGCGAGGAGGGGTGCCACGTAACGGAGTCACCTAGTGCAG	8360 fluorescence intensity (a.u.)
CGGCGAAGCAGAGCGCAGAGCGGAGGGTAGAGTGCGTCATCGGAGTCACCTAGTGCAG	3920 fluorescence intensity (a.u.)
CCTAGCCCCTCCCCTCCCCGTGCTCTCGCCCTCGTCTCCTCGGAGTCACCTAGTGCAG	14000 fluorescence intensity (a.u.)
ATCCACCCTCTATTCATCTACTCGGTTAGATGATCATTCACGGAGTCACCTAGTGCAG	3300 fluorescence intensity (a.u.)
TCGGCGGGGATGTCGTCGGTGGCGAGGTCGCCGGAGCGGACGGAGTCACCTAGTGCAG	6700 fluorescence intensity (a.u.)
CTCCTGGTTGCACACCACCATGTCATCGCCGGATGTTGCCCGGAGTCACCTAGTGCAG	5270 fluorescence intensity (a.u.)
AAGAGGATGGCTGGGAGGATGACATGTGGAGCCCACATGGCGGAGTCACCTAGTGCAG	4450 fluorescence intensity (a.u.)
GAGGGTTGCGACGCCGAAAGACGCCGTCGTCATCCGTCCACGGAGTCACCTAGTGCAG	3710 fluorescence intensity (a.u.)
CGGCCCCACCCTCCACTGTCCCCACCTCGTCAGTCACCGCCGGAGTCACCTAGTGCAG	24300 fluorescence intensity (a.u.)
CTTATCACGCAATCACACTAGATGAGCACGATCTAGCTTGCGGAGTCACCTAGTGCAG	3140 fluorescence intensity (a.u.)
GCACCTCTTTCCTATCACGCGTCACCTTGCTCCATTGTCGCGGAGTCACCTAGTGCAG	5900 fluorescence intensity (a.u.)
GGGGTCGCGGAGAGGGAAGAAGGCGTGGCGCGCCAACATCCGGAGTCACCTAGTGCAG	30000 fluorescence intensity (a.u.)
GGTCTGTGGCCAGTCATCTTTTATTGGTTATCCTAACACTCGGAGTCACCTAGTGCAG	3660 fluorescence intensity (a.u.)
CAAAGAGGGATCATGAACTCGCAAAGTCTGTTTGGACGATCGGAGTCACCTAGTGCAG	29700 fluorescence intensity (a.u.)
AAAATTCAGGAACACGACGTAGTATATACGCGTCATGCATCGGAGTCACCTAGTGCAG	5650 fluorescence intensity (a.u.)
ATATTGTCACGTGTCACATGTTAGTTTGTTCAGGAACGGACGGAGTCACCTAGTGCAG	5880 fluorescence intensity (a.u.)
GAGATGAAAATGGGGCCCGTTCACCGTTTCCCCGCAGTGACGGAGTCACCTAGTGCAG	3530 fluorescence intensity (a.u.)
TTCCTCCGTTTCACAATGTAAGATTTTCTAGCATTGCCCACGGAGTCACCTAGTGCAG	4800 fluorescence intensity (a.u.)
CGCGTGGCTAACGTCACCCAAAACCCAGCTCAGCAAATAGCGGAGTCACCTAGTGCAG	5590 fluorescence intensity (a.u.)
TTTCATGATGAATCTACGTATACACTCCATCTTCCTGTTGCGGAGTCACCTAGTGCAG	4320 fluorescence intensity (a.u.)
